Assay results from patent EP4831176A1, “BICYCLIC FUSED HETEROAROMATIC RING DERIVATIVE, AND PHARMACEUTICAL COMPOSITION AND USE THEREOF” (dated 2026).

Tests used:
[1] = In vivo pharmacokinetic study in mice (LC/MS/MS of plasma); settings: male ICR mice; for Drug elimination half-life T1/2 / Drug exposure AUC0-inf / Maximum drug concentration Cmax / Time to peak concentration Tmax: plasma, study IV 2 mg/kg and PO 10 mg/kg, route of this parameter not given; for Oral bioavailability F: IV 2 mg/kg, PO 10 mg/kg
Text: LC/MS/MS method was used to determine the drug concentrations in mouse plasma at different time points after intravenous injection and oral gavage administration of the compounds of the present application. The pharmacokinetic behavior of the compounds of the present application in mice was studied to evaluate their pharmacokinetic characteristics.
1. Experimental protocol: Test animals: Healthy adult male ICR mice, weighing 25-40 g, 6 mice. All mice had free access to food and water. Supplied by Beijing Vital River Laboratory Animal Technology Co., Ltd. Minimum of 3 days adaptation period, SPF area room, indoor temperature maintained at 20-26°C, indoor relative humidity maintained at 40-70%. Illuminated with fluorescent lamps, 12-hour light (08:00-20:00) and 12-hour dark, 2-5 mice per cage (same administration group). Unlimited access to feed (irradiated sterilized, Shaanxi Qinle Pharmaceutical Chemical Co., Ltd., China) and water (tap water purified by ultrapure water filtration system).
2. Animal experiment formulation: • 2.1. 10% DMSO / 40% PEG400 / 5% Tween 80 / 45% saline • 2.1.1 Vehicle formulation preparation: N/A • 2.1.2 Administration formulation preparation: Intravenous injection group: an appropriate amount of API powder was accurately weighed, added to 10% of the final volume of DMSO, and shaken and sonicated to ensure complete dissolution. After dissolution, 40% of the formulation volume of PEG400 and 5% of the formulation volume of Tween 80 were added, followed by vortexing or sonication. Finally, 45% of the formulation volume of saline was added to obtain a clear, transparent solution at a concentration of 0.5 mg/mL. • 2.2 10% HP-β-CD and 50 mM Citrate buffer in water (pH 4.0) • 2.2.1 Vehicle formulation preparation: • 50 mM Citrate buffer solution (pH 4.0): 1.92 g of anhydrous citric acid was weighed and added to 100 mL of purified water, stirred to dissolve, yielding a 100 mM citric acid solution. Separately, 2.94 g of sodium citrate was weighed and added to 100 mL of water, yielding a 100 mM sodium citrate solution. 33 mL of the 100 mM citric acid solution was taken, mixed with 17 mL of the 100 mM sodium citrate solution, mixed well, and diluted to 100 mL to obtain 50 mM citrate buffer at pH 4.0. • 10% HP-β-CD (Hydroxypropyl-β-cyclodextrin) and 50 mM Citrate buffer (pH 4.0) solution: 10 g of hydroxypropyl-β-cyclodextrin was accurately weighed and added to 100 mL of 50 mM Citrate buffer (pH 4.0) aqueous solution, and sonicated to ensure complete dissolution. • 2.2.2 Administration formulation preparation: Oral gavage group: an appropriate amount of API powder was accurately weighed, added to the final volume of 10% HP-β-CD and 50 mM Citrate in water (pH 4.0) solution, and shaken and sonicated to ensure complete dissolution. The mixture was then disrupted using a cell disruptor for 1 minute to obtain a clear, transparent or suspended solution at a concentration of 1 mg/mL. 3. Administration method: before administration, animals meeting the experimental requirements were selected, weighed, and marked. ICR mice were administered 2 mg/kg via tail vein injection and 10 mg/kg via oral gavage. 4. Sample Collection: before sampling, mice were restrained. Blood was collected from each dosed mouse via the submandibular vein at predetermined time points (IV administration: 0.083h, 0.25h, 0.5h, 1h, 2h, 4h, 7h, 24h, 30h, and 48h post-dose, totaling 10 time points; Oral gavage administration: 0.083h, 0.25h, 0.5h, 1h, 2h, 4h, 7h, 24h, 30h, and 48h post-dose, totaling 10 time points), approximately 80 µL of blood was collected each time. The blood was transferred to a 1.5 mL tube pre-filled with K2EDTA, and centrifuged (Eppendorf, Centrifuge 5804R) for 3 min (10000 rpm, 4°C) to separate plasma. The entire process was completed within 15 minutes after blood collection. All samples were stored in a -20°C freezer (Panasonic) until sample analysis. 5. […]

Pfeiffer cells = experiment: Proliferation inhibition of Pfeiffer tumor cells, Cell Titer-Glo; settings: read-out: CTG IC50, 144 hours incubation

SMILES: Cc1nc(CCC(=O)NCCOc2ccc(OCC(=O)N[C@H](C(=O)N3C[C@H](O)C[C@H]3C(=O)NCc3ccc(-c4scnc4C)cc3)C(C)(C)C)cc2)ccc1-c1cnc(NCc2c(F)ccc3c2CCO3)n2cnnc12
- Drug elimination half-life T1/2 [1]: 1.1 h
- Drug exposure AUC0-inf [1]: 40 ng·h/mL
- Maximum drug concentration Cmax [1]: 21 ng/mL
- Time to peak concentration Tmax [1]: 0.4 h
- Oral bioavailability F [1]: 1.7%
- IC50 (Pfeiffer cells): 391 nM

SMILES: Cn1c(=O)n(C2CCC(=O)NC2=O)c2ccc(N3CCC(CN4CCC(c5ccc(-c6cnc(NCc7c(F)ccc8c7CCO8)n7cnc(Cl)c67)cc5)CC4)CC3)cc21 (stereo not drawn)
- Drug elimination half-life T1/2 [1]: 12.7 h
- Drug exposure AUC0-inf [1]: 19505 ng·h/mL
- Maximum drug concentration Cmax [1]: 785 ng/mL
- Time to peak concentration Tmax [1]: 5.0 h
- Oral bioavailability F [1]: 55.8%
- IC50 (Pfeiffer cells): 0.8 nM

SMILES: Cn1c(=O)n(C2CCC(=O)NC2=O)c2ccc(N3CCC(CN4CCC(c5ccc(-c6cnc(NCc7c(F)ccc8c7CCO8)n7cc(C#N)nc67)cc5)CC4)CC3)cc21 (stereo not drawn)
- Drug elimination half-life T1/2 [1]: 5.4 h
- Drug exposure AUC0-inf [1]: 5058 ng·h/mL
- Maximum drug concentration Cmax [1]: 385 ng/mL
- Time to peak concentration Tmax [1]: 3.3 h
- Oral bioavailability F [1]: 21.5%
- IC50 (Pfeiffer cells): 0.2 nM

SMILES: Cn1nc(C2CCC(=O)NC2=O)c2ccc(N3CCC(CN4CCC(c5ccc(-c6cnc(NCc7c(F)ccc8c7CCO8)n7cnc(P(C)(C)=O)c67)cc5)CC4)CC3)cc21 (stereo not drawn)
- Drug elimination half-life T1/2 [1]: 4.5 h
- Drug exposure AUC0-inf [1]: 44 ng·h/mL
- Maximum drug concentration Cmax [1]: 6 ng/mL
- Time to peak concentration Tmax [1]: 2.3 h
- Oral bioavailability F [1]: 0.2%
- IC50 (Pfeiffer cells): 0.6 nM

SMILES: Cc1nc(C2CCN(CC3CCN(c4ccc5c(C6CCC(=O)NC6=O)nn(C)c5c4)CC3)CC2)ccc1-c1cnc(NCc2c(F)ccc3c2CCO3)n2cnc(Cl)c12 (stereo not drawn)
- Drug elimination half-life T1/2 [1]: 13.9 h
- Drug exposure AUC0-inf [1]: 14055 ng·h/mL
- Maximum drug concentration Cmax [1]: 613 ng/mL
- Time to peak concentration Tmax [1]: 6.0 h
- Oral bioavailability F [1]: 43.3%
- IC50 (Pfeiffer cells): 0.5 nM

SMILES: Cn1nc(C2CCC(=O)NC2=O)c2ccc(N3CCN(C4CCN(Cc5ncc(-c6cnc(NCc7c(F)ccc8c7CCO8)n7cnc(Cl)c67)cn5)CC4(F)F)CC3)cc21 (stereo not drawn)
- Drug elimination half-life T1/2 [1]: 4.8 h
- Drug exposure AUC0-inf [1]: 36662 ng·h/mL
- Maximum drug concentration Cmax [1]: 2543 ng/mL
- Time to peak concentration Tmax [1]: 6.0 h
- Oral bioavailability F [1]: 65.4%
- IC50 (Pfeiffer cells): 0.8 nM

SMILES: Cc1nc(C2CCN(CC3CCN(c4ccc5c(C6CCC(=O)NC6=O)nn(C)c5c4)CC3)CC2)ccc1-c1cnc(NCc2c(F)ccc3c2CCO3)n2cnc(F)c12 (stereo not drawn)
- Drug elimination half-life T1/2 [1]: 6.6 h
- Drug exposure AUC0-inf [1]: 8204 ng·h/mL
- Maximum drug concentration Cmax [1]: 492 ng/mL
- Time to peak concentration Tmax [1]: 5.0 h
- Oral bioavailability F [1]: 57.0%
- IC50 (Pfeiffer cells): 0.1 nM

SMILES: Cn1nc(C2CCN(CC3CCN(c4cc5c(cc4F)c(C4CCC(=O)NC4=O)nn5C)CC3)CC2)cc1-c1cnc(NCc2c(F)ccc3c2CCO3)n2cnc(Cl)c12 (stereo not drawn)
- Drug elimination half-life T1/2 [1]: 5.8 h
- Drug exposure AUC0-inf [1]: 8401 ng·h/mL
- Maximum drug concentration Cmax [1]: 534 ng/mL
- Time to peak concentration Tmax [1]: 6.0 h
- Oral bioavailability F [1]: 34.8%
- IC50 (Pfeiffer cells): < 0.03 nM

SMILES: Cn1nc(C2CCC(=O)NC2=O)c2ccc(N3CCC(CN4CCC(n5cc(-c6cnc(NCc7c(F)ccc8c7CCO8)n7cnc(Cl)c67)nn5)CC4)CC3)cc21 (stereo not drawn)
- Drug elimination half-life T1/2 [1]: 4.6 h
- Drug exposure AUC0-inf [1]: 13339 ng·h/mL
- Maximum drug concentration Cmax [1]: 917 ng/mL
- Time to peak concentration Tmax [1]: 6.0 h
- Oral bioavailability F [1]: 39.2%
- IC50 (Pfeiffer cells): 0.2 nM

SMILES: Cc1nc(-c2cnc(NCc3c(F)ccc4c3CCO4)n3cnc(Cl)c23)ccc1C1CCN(CC2CCN(c3ccc4c(C5CCC(=O)NC5=O)nn(C)c4c3)CC2)CC1 (stereo not drawn)
- Drug elimination half-life T1/2 [1]: 11.7 h
- Drug exposure AUC0-inf [1]: 39355 ng·h/mL
- Maximum drug concentration Cmax [1]: 1667 ng/mL
- Time to peak concentration Tmax [1]: 7.0 h
- Oral bioavailability F [1]: 63.9%
- IC50 (Pfeiffer cells): 0.2 nM

SMILES: Cc1nc(C(=O)NC2CCN(CC3CCN(c4ccc5c(C6CCC(=O)NC6=O)nn(C)c5c4)CC3)CC2)ccc1-c1cnc(NCc2c(F)ccc3c2CCO3)n2cnc(Cl)c12 (stereo not drawn)
- Drug elimination half-life T1/2 [1]: 7.0 h
- Drug exposure AUC0-inf [1]: 3963 ng·h/mL
- Maximum drug concentration Cmax [1]: 265 ng/mL
- Time to peak concentration Tmax [1]: 7.0 h
- Oral bioavailability F [1]: 15.8%
- IC50 (Pfeiffer cells): 1.3 nM

SMILES: Cn1nc(C2CCC(=O)NC2=O)c2cc(F)c(N3CCC(CN4CCC(c5ccc(-c6cnc(NCc7c(F)ccc8c7CCO8)n7cnc(Cl)c67)nn5)CC4)CC3)cc21 (stereo not drawn)
- Drug elimination half-life T1/2 [1]: 6.6 h
- Drug exposure AUC0-inf [1]: 8307 ng·h/mL
- Maximum drug concentration Cmax [1]: 664 ng/mL
- Time to peak concentration Tmax [1]: 3.5 h
- Oral bioavailability F [1]: 24.5%
- IC50 (Pfeiffer cells): < 0.03 nM

SMILES: Cn1c(=O)n(C2CCC(=O)NC2=O)c2ccc(N3CCC(CN4CCC(c5ccc(-c6cnc(NCc7c(F)ccc8c7CCO8)n7cnc(S(C)(=O)=O)c67)cc5)CC4)CC3)cc21 (stereo not drawn)
- Drug elimination half-life T1/2 [1]: 3.8 h
- Drug exposure AUC0-inf [1]: 119 ng·h/mL
- Maximum drug concentration Cmax [1]: 23 ng/mL
- Time to peak concentration Tmax [1]: 2.0 h
- Oral bioavailability F [1]: 1.4%
- IC50 (Pfeiffer cells): < 0.1 nM

The structures given here were assigned with low confidence; some may be wrong.
